The target in assay [1] is T1, PPD3, 27.5 kDa PsbP domain-containing protein (Arabidopsis, AT1G76450) (Arabidopsis) (UniProt Q9S720).
T1 sequence (looked up): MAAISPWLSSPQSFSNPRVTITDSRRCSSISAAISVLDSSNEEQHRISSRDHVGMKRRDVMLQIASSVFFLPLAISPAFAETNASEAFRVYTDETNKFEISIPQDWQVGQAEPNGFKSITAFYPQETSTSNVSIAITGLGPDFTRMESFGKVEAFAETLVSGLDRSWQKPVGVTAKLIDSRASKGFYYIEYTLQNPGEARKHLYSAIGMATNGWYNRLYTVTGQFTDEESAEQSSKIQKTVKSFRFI
The assay is described as follows: co-immunoprecipitation and yeast 2-hybrid.

Assay [2] addresses T1, PPD3, 27.5 kDa PsbP domain-containing protein (Arabidopsis, AT1G76450) (Arabidopsis). The assay is described as follows: yeast 2-hybrid, full-length MSH1 as bait, screen and one-on-one matings.

These are yes or no findings as the source states them, for the method shown. For some assays here: In cells and extracts the contact can be indirect. Some entries that bind do so weakly or less than the wild type.

B1: Arabidopsis MSH1 protein (MUTS HOMOLOG 1), full-length (protein)
chain: MHWIATRNAVVSFPKWRFFFRSSYRTYSSLKPSSPILLNRRYSEGISCLRDGKSLKRITTASKKVKTSSDVLTDKDLSHLVWWKERLQTCKKPSTLQLIERLMYTNLLGLDPSLRNGSLKDGNLNWEMLQFKSRFPREVLLCRVGEFYEAIGIDACILVEYAGLNPFGGLRSDSIPKAGCPIMNLRQTLDDLTRNGYSVCIVEEVQGPTPARSRKGRFISGHAHPGSPYVYGLVGVDHDLDFPDPMPVVGISRSARGYCMISIFETMKAYSLDDGLTEEALVTKLRTRRCHHLFLHASLRHNASGTCRWGEFGEGGLLWGECSSRNFEWFEGDTLSELLSRVKDVYGLDDEVSFRNVNVPSKNRPRPLHLGTATQIGALPTEGIPCLLKVLLPSTCSGLPSLYVRDLLLNPPAYDIALKIQETCKLMSTVTCSIPEFTCVSSAKLVKLLEQREANYIEFCRIKNVLDDVLHMHRHAELVEILKLLMDPTWVATGLKIDFDTFVNECHWASDTIGEMISLDENESHQNVSKCDNVPNEFFYDMESSWRGRVKGIHIEEEITQVEKSAEALSLAVAEDFHPIISRIKATTASLGGPKGEIAYAREHESVWFKGKRFTPSIWAGTAGEDQIKQLKPALDSKGKKVGEEWFTTPKVEIALVRYHEASENAKARVLELLRELSVKLQTKINVLVFASMLLVISKALFSHACEGRRRKWVFPTLVGFSLDEGAKPLDGASRMKLTGLSPYWFDVSSGTAVHNTVDMQSLFLLTGPNGGGKSSLLRSICAAALLGISGLMVPAESACIPHFDSIMLHMKSYDSPVDGKSSFQVEMSEIRSIVSQATSRSLVLIDEICRGTETAKGTCIAGSVVESLDTSGCLGIVSTHLHGIFSLPLTAKNITYKAMGAENVEGQTKPTWKLTDGVCRESLAFETAKREGVPESVIQRAEALYLSVYAKDASAEVVKPDQIITSSNNDQQIQKPVSSERSLEKDLAKAIVKICGKKMIEPEAIECLSIGARELPPPSTVGSSCVYVMRRPDKRLYIGQTDDLEGRIRAHRAKEGLQGSSFLYLMVQGKSMACQLETLLINQLHEQGYSLANLADGKHRNFGTSSSLSTSDVVSIL
Turning to B1, the binding entry in assay [1] and in assay [2] was “binds” each time.

The values above are taken from patent publication US20150113679A1.
